Here are results for one molecule from US20190125735A1, “INHIBITION OF P38 MAPK FOR THE TREATMENT OF CANCER” (Board of Regents, The University of Texas System, priority 2015, published 2019).

Amino acid sequences for entries named in this document (tags omitted). A change or cut given only in a name is not applied to a line headed by its entry.
UniProt P31749: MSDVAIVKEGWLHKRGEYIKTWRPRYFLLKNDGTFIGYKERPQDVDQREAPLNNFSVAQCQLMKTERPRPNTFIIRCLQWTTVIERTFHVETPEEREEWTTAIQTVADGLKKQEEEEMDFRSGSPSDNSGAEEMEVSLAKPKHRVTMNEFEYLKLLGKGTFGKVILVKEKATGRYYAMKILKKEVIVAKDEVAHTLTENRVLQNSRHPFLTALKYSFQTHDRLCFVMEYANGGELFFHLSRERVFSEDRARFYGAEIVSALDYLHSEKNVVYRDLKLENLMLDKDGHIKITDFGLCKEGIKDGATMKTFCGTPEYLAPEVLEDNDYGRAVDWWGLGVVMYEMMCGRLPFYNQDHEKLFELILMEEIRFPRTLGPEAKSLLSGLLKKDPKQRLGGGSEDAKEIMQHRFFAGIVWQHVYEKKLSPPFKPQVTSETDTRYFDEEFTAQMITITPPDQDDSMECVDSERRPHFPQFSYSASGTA

One experiment has as its system HMLE-Snail cells. Kind of experiment: Sphere formation in ultra-low attachment plates, HMLE-Snail cells. As to conditions: Homo sapiens, read-out: Concentration of the drug that induced 50% reduction in sphere formation. The class given is cell-based. How it is done: (§1) FIGS. 25A-25D: p38 inhibition compromises stem cell properties in vitro. (A) HMLER-Snail cells were treated with various p38 inhibitors. Cells were seeded in ultra-low attachment plates and cultured for 7-10 days. Spheres with a diameter greater than […] were counted. The data are reported as the number of spheres formed/1000 seeded cells±SEM. Concentration of the drug that induced 50% reduction in sphere formation: SB203580—20 uM; PH797804—10 nM; LY2228820—10 nM; VX-702—50 uM. (B) SUM159 cells were treated with various p38 inhibitors. Cells were seeded in ultra-low attachment plates and cultured for 7-10 days. Spheres with a diameter greater than 75 μm were counted. The data are reported as the number of spheres formed/1000 seeded cells±SEM. Concentration of the drug that induced 50% reduction in sphere formation: SB203580—20 uM; PH797804—100 nM; LY2228820—300 nM nM; VX-702-50 uM. (C) HMLE-Snail cells were treated with various p38 inhibitors. Cells were seeded in ultra-low attachment plates and cultured for 7-10 days. Spheres with a diameter greater than 75 μm were counted. The data are reported as the number of spheres formed/1000 seeded cells±SEM. […]
(§2) Quantification of invadopodia (Eckert et al., 2011), scratch/wound-healing assays (Sarkar et al., 2015) fluorescence-activated cell sorting (FACS), and sphere-formation assays (Mani et al., 2008) were conducted as described previously.

A further experiment concerns the target T1, Akt1 (Homo sapiens, UniProt P31749).
T1 construct: endogenous in cells; host or cells: PCa cells (LNCaP, DU145, PC3; which line is not specified)
Kind of experiment: Phosphorylation of Akt1 in PCa cells. The experiment is classed as cell-based. As to conditions: SB203580 concentration used to treat PCa cells (5 μM). Here is the method:
For assessing the effect of inhibition of p38MAPK signaling, cells were treated for 7 days with 5 μM SB203580 45 (EMD-Millipore) dissolved in water. For assessing the combined effect of p38MAPK inhibition and the AR antagonist Enzalutamide (Scher et al., 2012) (SelleckChem) or the chemotherapeutic Docetaxel (LC Laboratories), cells were co-treated with SB203580 and either Enzalutamide/Docetaxel for 7 days.

The subject of the next experiment is SUM159 cells. Kind of experiment: Sphere formation in ultra-low attachment plates, SUM159 cells. The experiment is classed as cell-based. Conditions: Homo sapiens, SUM159, read-out: Concentration of the drug that induced 50% reduction in sphere formation. Here is the method: as §1, §2
The test system of another experiment is 4T1 cells. Kind of experiment: Sphere formation of 4T1 cells. The experiment is classed as cell-based, mouse. Here is the method: FIGS. 17A-17E: p38-mediated phosphorylation of FOXC2 at S367 regulates metastasis. (A) 4T1 cells, transduced with either empty vector (pMIG) or FOXC2 (S367E), were treated with vehicle or SB203580. Cell lysates were analyzed by immunoblotting for FOXC2, with β-actin as a loading control. (B) 4T1 cells, transduced with empty vector or FOXC2 (S367E), were subjected to a sphere-formation assay in the presence of vehicle or SB203580. Data are presented as the mean number of spheres formed/1000 seeded cells±SEM. (C) 4T1-vector or 4T1-FOXC2 (S367E) luciferase-labeled cells were orthotopically injected into mice. Mice were treated daily with vehicle or SB203580, and primary tumor growth was monitored weekly by bioluminescence. Data are presented as the total photon flux plotted over time and reported as mean±SEM. (D) Representative bioluminescent images of lungs harvested from mice in (c) at 4 weeks post-implantation. (E) The bioluminescent signal from the lungs harvested from mice in (c) was quantified to determine the incidence of metastasis. Data are reported as mean±SEM. p-values were calculated using Student's unpaired two-tailed t-test.*p<0.05; ***p<0.001 compared to the control.
It was next tested whether p38-mediated phosphorylation of FOXC2 enhances its ability to confer metastatic competence.

The next experiment concerns HMLER-Snail cells. Kind of experiment: Sphere formation in ultra-low attachment plates, HMLER-Snail cells. The experiment is classed as cell-based. Conditions: Homo sapiens, read-out: Concentration of the drug that induced 50% reduction in sphere formation. How it is done:
as §1, §2

For another experiment, the system named is FOXC2 protein. Kind of experiment: Western blots of FOXC2 protein in HMLER-Snail cells. The class given is cell-based. As to conditions: Homo sapiens, 48 h, Day 2 of treatment, read-out: Concentration of the drug that induced 50% reduction in FOXC2 protein. Here is the method:
FIGS. 25A-25D: p38 inhibition compromises stem cell properties in vitro. (A) HMLER-Snail cells were treated with various p38 inhibitors. Cells were seeded in ultra-low attachment plates and cultured for 7-10 days. Spheres with a diameter greater than […] were counted. The data are reported as the number of spheres formed/1000 seeded cells±SEM. Concentration of the drug that induced 50% reduction in sphere formation: SB203580—20 uM; PH797804—10 nM; LY2228820—10 nM; VX-702—50 uM. (B) SUM159 cells were treated with various p38 inhibitors. Cells were seeded in ultra-low attachment plates and cultured for 7-10 days. Spheres with a diameter greater than 75 μm were counted. The data are reported as the number of spheres formed/1000 seeded cells±SEM. Concentration of the drug that induced 50% reduction in sphere formation: SB203580—20 uM; PH797804—100 nM; LY2228820—300 nM nM; VX-702-50 uM. (C) HMLE-Snail cells were treated with various p38 inhibitors. Cells were seeded in ultra-low attachment plates and cultured for 7-10 days. Spheres with a diameter greater than 75 μm were counted. The data are reported as the number of spheres formed/1000 seeded cells±SEM. […] (D) Western blots of HMLER-Snail cell treatment with various p38 inhibitors on Day 2 of treatment. Concentration of the drug that induced 50% reduction in FOXC2 protein: SB203580-10 uM; PH797804—50 nM; TAK-714-5 uM. […]

Experiment [1] deals with BCR-ABL+ mouse ALL cells seeded on MSCs. Kind of experiment: Post-screening leukemic cell cluster formation underneath pretreated MSCs. The experiment is classed as cell-based. Conditions: leukemic cells pre-treated with SB203580 (20 μM, 2 days), seeded onto imatinib-pretreated MSCs, vs control. The source says: Phase-contrast images of co-cultured MSCs and ALL cells were obtained using an Axio Observer.Z1 microscope, an AxioCam MR camera, and AxioVision software (Zeiss, Oberkochen, Germany). For screening, a cluster was defined as a group of more than five leukemic cells under the MSCs. The total number of leukemic cell clusters was the average number of clusters from three different fields (10× objective). For post-screening experiments, a cluster was defined as a group of more than 10 leukemic cells under the MSCs. The total number of leukemic cell clusters was the average number of clusters from 10 different fields (10× objective).

With `C[S+]([O-])c1ccc(-c2nc(-c3ccc(F)cc3)c(-c3ccncc3)[nH]2)cc1` (centres unmarked) [SB203580, 4-(4-Fluorophenyl)-2-(4-methylsulfinylphenyl)-5-(4-pyridyl) 1H-imidazole], the IC50 in the experiment on HMLE-Snail cells turned out to be 20 µM; in the experiment with SUM159 cells, 20 µM; with HMLER-Snail cells it was 20 µM; in the experiment with FOXC2 protein, 10 µM. Moreover, on Akt1, the “Phosphorylation of Akt1 (selectivity)” value is given as “No appreciable changes in the phosphorylation of Akt1”. Besides, the Sphere-forming efficiency result with 4T1 cells (4T1-FOXC2(S367E) cells) was “refractory to p38 inhibition”; with 4T1 cells (vector-transduced 4T1 cells) it was “compromised the sphere-forming efficiency”. Further, the “Efficiency in leukemic cell cluster formation” value in experiment [1] is “did not differ significantly”.
